From patent US8552166, “High-affinity nucleic acid aptamers against sclerostin protein” (The University of Hong Kong)
Tags and fusion partners may be left off the protein sequences shown. For some of these results: For at least one entry, the source does not settle the construct or the ends of the probe.

Experiments:
[1] = target: T1, Sclerostin (SOST) (Mus musculus) (UniProt Q99P68); assay: SELEX; conditions: isolated after 15 rounds, purified recombinant protein, protein details: GST fusion (pGEX-4T1, E. coli BL21(DE3)), single-stranded DNA
T1 sequence (looked up): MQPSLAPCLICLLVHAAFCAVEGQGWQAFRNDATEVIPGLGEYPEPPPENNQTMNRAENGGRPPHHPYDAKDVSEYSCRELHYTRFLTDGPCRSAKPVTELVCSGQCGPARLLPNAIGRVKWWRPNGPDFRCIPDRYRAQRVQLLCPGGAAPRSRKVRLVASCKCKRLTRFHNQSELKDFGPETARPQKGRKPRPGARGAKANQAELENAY

[2] = target: T2, Sclerostin (SOST) (UniProt Q99P68); assay: activity in cells; conditions: 3' inverted thymidine (idT); TOPflash Wnt3a reporter in MC3T3-E1; blocks sclerostin antagonism dose-dependently 0.1-1.5 uM, saturated at 1.5 uM; protein in cells; protein details: expression vector co-transfected in MC3T3-E1 cells; single-stranded DNA; variant of Scl 2
T2 sequence (looked up, limits assumed): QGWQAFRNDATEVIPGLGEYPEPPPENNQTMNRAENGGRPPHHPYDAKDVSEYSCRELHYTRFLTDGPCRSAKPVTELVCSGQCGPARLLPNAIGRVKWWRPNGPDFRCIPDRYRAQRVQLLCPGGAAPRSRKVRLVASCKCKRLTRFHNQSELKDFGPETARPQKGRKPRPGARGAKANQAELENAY

GGGGGGGGTGGGGTGGGTCAATATTCTCGTC [Scl 4]
selection result ([1]; also tested by ELONA at 50 nM): selected

GTTTCCAAAGCCGGGGGGGTGGGATGGGTT [Scl 1]
selection result ([1]; also tested by ELONA at 50 nM): selected

TTGCGCGTTAATTGGGGGGGTGGGTGGGTT [3' InT Scl 2]
functional effect of the aptamer [2]: active

CCCTCCAAAGCGGGGGGGGTGGGTGGGCAG [Scl 6]
selection result [1]: selected

TGCCTTGTTATTGTGGTGGGCGGGTGGGAC [Scl 3]
selection result ([1]; also tested by ELONA at 50 nM): selected

TTGCGCGTTAATTGGGGGGGTGGGTGGGTT [Scl 5]
selection result ([1]; printed sequence identical to Scl 2): selected

TTCTGTCACATGTGGGGGGGGGGGTGGGTT [Scl 7]
selection result ([1]; listing SEQ 8 differs from sequence printed in text): selected
